{
  "source": "PubChem BioAssay AID2284324",
  "about": "(EPA ToxCast)",
  "note": "The shares of active, inactive and inconclusive entries below differ from those in the screen. Potencies of inconclusive entries are doubtful fits and often do not repeat. Calls of active or inactive are those of the source. How the source made its calls: active means hit-call score of the fitted dose curve at least 0.9, where 1 is the maximum; inconclusive means response in the unintended direction; inactive means score below 0.9.",
  "data": [
    {"system": "Japanese medaka Glucocorticoid Receptor (GR), gene 101170451", "experiment": "ATG_jmGR_EcoTox2: Attagene TRANS-FACTORIAL EcoTox-2 HepG2 Assay for Japanese medaka Glucocorticoid Receptor (GR)", "experimental": "ATG_EcoTox2 is a cell-based, multiplexed assay created by modifying the existing Attagene TRANS-FACTORIAL system to include a panel of nuclear receptors from some or all the following species: human (Homo sapiens), african clawed frog (Xenopus laevis), rainbow trout (Oncorhynchus mykiss), japanese medaka (Oryzias latipes), and zebrafish (Danio rerio). The ECOTOX2-FACTORIAL format uses HepG2, a human liver cell line, with measurements taken at 24 hours after chemical dosing in a 24-well plate. ATG_jmGR_EcoTox2 is one of 29 assay components calculated in the ATG_EcoTox2 assay. It is designed to make measurements of mRNA induction, a form of inducible reporter, as detected with fluorescence intensity signals by Reverse transcription polymerase chain reaction (RT-PCR) and Capillary electrophoresis technology.The assay endpoint ATG_jmGR_EcoTox2 was analyzed in the positive analysis fitting direction relative to DMSO as the negative control and baseline of activity. Using a type of inducible reporter, measures of mRNA for gain-of-signal activity can be used to understand the reporter gene at the transcription factor-level as they relate to the gene for glucocorticoid receptor. Furthermore, this assay endpoint can be referred to as a primary readout, because this assay has produced multiple assay endpoints where this one serves a reporter gene function. To generalize the intended target to other relatable targets, this assay endpoint is annotated to the nuclear receptor intended target family, where the subfamily is steroidal.\nHuman liver HepG2 cells are transiently transfected with multiple reporter transcription units (MRTUs) in 6-well plates using FuGene 6 reagent (Roche; 3 ml FuGene/1 mg DNA). The MRTU constructs are regulated by a cis-regulating element (promoter). Each RTU expresses a GAL4-UAS that regulates the transcription of a nearby target reporter gene sequence. A major difference between the CIS and TRANS system is that in CIS activities of endogenous TFs are measured, whereas the TRANS assay evaluates changes in activities of exogenous, chimeric NR-Gal4 proteins. […] At the end of 24 hour incubation, total RNA was isolated using TriZol reagent (Invitrogen). The isolated RNA is then reverse-transcribed using oligo(dT) primer and Mo-MLV reverse transcriptase (Invitrogen) with DNAse I (Ambion) treatment for 30 min. The one-tenth of the produced cDNA was amplified by PCR using Taq DNA polymerase (Invitrogen) and two reporter sequence-specific primers. The PCR products were fluorescently labeled by primer extension with 6-arboxyfluorescein (6-FAM) 5'-labeled reporter sequence-specific primer (2 min at 95 C, 20 s at 68 C and 10 min at 72 C) and these products were digested with 5U of HpaI (New England Biolabs) for 2h at 37 C. The fragments were purified using Qiaquick PCR columns (Qiagen), analyzed on an ABI 3130xL genetic analyzer (Applied Biosystems) with peak positions identified by using a set of X-rhodamine (ROX)-labeled MapMarker1000 molecular weight standards (BioVentures). The raw capillary electrophoresis data was processed using Attagraph software (Attagene).", "values": [
      {"smiles": "Cc1nc(-c2ccc(C(F)(F)F)cc2)sc1C(=O)NCc1ccc(OC(C)(C)C(=O)O)cc1", "AC50": "inconclusive: 0.0849 µM"},
      {"smiles": "C[C@@H]1C[C@H]2[C@@H]3CCC4=CC(=O)C=C[C@]4(C)[C@@]3(F)[C@@H](O)C[C@]2(C)[C@@]1(O)C(=O)COP(=O)(O)O", "AC50": "active: 0.0148 µM"},
      {"smiles": "C=C(c1ccc(C(=O)O)cc1)c1cc2c(cc1C)C(C)(C)CCC2(C)C", "AC50": "inconclusive: 5.55 µM"},
      {"smiles": "CC(C)OC(=O)C(C)(C)Oc1ccc(C(=O)c2ccc(Cl)cc2)cc1", "outcome": "inactive"},
      {"smiles": "CC(c1cc2ccccc2s1)N(O)C(N)=O", "note": "(stereo not given)", "AC50": "inconclusive: 50 µM"},
      {"smiles": "CC(C)(Oc1ccc(Cl)cc1)C(=O)O", "outcome": "inactive"},
      {"smiles": "CN(CCOc1ccc(CC2SC(=O)NC2=O)cc1)c1ccccn1", "note": "(stereo not given)", "AC50": "inconclusive: 0.334 µM"},
      {"smiles": "C[C@]12C=CC(=O)C=C1CC[C@@H]1[C@@H]2C(=O)C[C@@]2(C)[C@H]1CC[C@]2(O)C(=O)CO", "outcome": "inactive"},
      {"smiles": "Cc1ccc(C)c(OCCCC(C)(C)C(=O)O)c1", "outcome": "inactive"},
      {"smiles": "Cc1c(C)c2c(c(C)c1O)CCC(C)(COc1ccc(CC3SC(=O)NC3=O)cc1)O2", "note": "(stereo not given)", "AC50": "inconclusive: 0.246 µM"}
    ]}
  ]
}
